Experimental findings from paper doi:10.1101/2025.07.04.663186 are described below.

Chains of the proteins cited; added tags and fusions are not shown. Lines headed by an entry give the natural chain unless they say otherwise; changes in a name come on top. Residues count along the entry.
UniProt Q96B97: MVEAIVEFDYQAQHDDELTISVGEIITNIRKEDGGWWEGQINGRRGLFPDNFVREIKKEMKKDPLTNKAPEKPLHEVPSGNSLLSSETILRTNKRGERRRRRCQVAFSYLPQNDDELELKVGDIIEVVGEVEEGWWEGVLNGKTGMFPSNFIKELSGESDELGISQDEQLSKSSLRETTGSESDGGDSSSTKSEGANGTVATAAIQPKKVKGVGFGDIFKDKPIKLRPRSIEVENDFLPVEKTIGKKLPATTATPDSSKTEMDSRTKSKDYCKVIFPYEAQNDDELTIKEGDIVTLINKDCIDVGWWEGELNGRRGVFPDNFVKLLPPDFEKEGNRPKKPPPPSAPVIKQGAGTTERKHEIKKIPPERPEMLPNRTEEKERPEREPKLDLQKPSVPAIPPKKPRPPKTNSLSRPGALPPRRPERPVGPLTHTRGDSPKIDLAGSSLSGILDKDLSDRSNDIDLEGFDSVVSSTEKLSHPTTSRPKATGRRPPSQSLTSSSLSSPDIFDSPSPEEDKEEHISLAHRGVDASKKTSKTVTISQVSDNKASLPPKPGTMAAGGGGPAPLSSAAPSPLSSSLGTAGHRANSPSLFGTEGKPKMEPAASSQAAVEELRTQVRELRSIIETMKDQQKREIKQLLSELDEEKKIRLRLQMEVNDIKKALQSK
myc-ASAP-3' (aa 589 - aa1129) (Q9ULH1, residues 589-1129): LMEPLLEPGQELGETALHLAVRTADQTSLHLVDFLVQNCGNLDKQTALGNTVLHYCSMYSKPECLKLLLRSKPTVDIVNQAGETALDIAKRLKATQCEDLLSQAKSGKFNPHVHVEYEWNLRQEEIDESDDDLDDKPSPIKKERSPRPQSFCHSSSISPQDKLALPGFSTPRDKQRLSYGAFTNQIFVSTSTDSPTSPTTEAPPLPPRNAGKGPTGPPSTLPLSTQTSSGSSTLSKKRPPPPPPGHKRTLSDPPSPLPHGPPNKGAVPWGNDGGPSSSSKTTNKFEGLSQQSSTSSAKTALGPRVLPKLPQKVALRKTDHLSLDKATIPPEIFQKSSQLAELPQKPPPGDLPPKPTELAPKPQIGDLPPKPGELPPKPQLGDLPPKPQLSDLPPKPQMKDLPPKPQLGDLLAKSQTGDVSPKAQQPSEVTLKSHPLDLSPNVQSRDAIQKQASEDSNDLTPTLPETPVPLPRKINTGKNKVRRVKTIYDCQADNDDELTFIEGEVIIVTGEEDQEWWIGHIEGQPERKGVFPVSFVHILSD
myc-ASAP1 construct 3 (residue 589-937) (Q9ULH1, residues 589-937): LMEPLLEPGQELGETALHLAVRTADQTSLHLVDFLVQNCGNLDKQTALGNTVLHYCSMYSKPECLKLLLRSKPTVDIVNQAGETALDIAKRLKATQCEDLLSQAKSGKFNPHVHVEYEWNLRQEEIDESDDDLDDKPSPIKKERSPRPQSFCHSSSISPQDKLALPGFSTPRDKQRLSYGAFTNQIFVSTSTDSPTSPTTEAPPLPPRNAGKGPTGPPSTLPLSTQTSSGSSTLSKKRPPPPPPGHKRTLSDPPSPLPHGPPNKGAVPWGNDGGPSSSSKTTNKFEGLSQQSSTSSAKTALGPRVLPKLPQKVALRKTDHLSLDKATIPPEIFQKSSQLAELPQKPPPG

Substitutions are numbered along the chain they refer to. Numbers in names are those of the source. Like-named read-outs stand apart in the source and are kept apart here. These are yes or no findings as the source states them, for the method shown. In cells and extracts the contact can be indirect. Some binding calls cover weakened binding; strength is not graded here. Sequences can lack the tags named with a protein.

What all share (experiment): co-IP
One assay has as its target T1, GFP-MYO1F tail (human) (UniProt O00160).
T1 sequence: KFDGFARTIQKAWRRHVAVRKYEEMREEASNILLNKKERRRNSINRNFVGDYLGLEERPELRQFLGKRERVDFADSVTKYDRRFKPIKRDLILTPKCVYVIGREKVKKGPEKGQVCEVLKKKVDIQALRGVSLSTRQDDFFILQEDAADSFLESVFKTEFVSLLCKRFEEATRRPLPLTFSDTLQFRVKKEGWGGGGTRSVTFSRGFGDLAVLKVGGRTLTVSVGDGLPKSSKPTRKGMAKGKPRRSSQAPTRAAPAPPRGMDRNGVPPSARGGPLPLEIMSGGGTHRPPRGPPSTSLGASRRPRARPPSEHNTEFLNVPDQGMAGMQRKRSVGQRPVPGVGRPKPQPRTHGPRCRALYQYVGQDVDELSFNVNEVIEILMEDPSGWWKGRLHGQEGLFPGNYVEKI

Assay [1] has as its target T2, GFP-MYO1F (full-length) (human) (UniProt O00160).
T2 sequence: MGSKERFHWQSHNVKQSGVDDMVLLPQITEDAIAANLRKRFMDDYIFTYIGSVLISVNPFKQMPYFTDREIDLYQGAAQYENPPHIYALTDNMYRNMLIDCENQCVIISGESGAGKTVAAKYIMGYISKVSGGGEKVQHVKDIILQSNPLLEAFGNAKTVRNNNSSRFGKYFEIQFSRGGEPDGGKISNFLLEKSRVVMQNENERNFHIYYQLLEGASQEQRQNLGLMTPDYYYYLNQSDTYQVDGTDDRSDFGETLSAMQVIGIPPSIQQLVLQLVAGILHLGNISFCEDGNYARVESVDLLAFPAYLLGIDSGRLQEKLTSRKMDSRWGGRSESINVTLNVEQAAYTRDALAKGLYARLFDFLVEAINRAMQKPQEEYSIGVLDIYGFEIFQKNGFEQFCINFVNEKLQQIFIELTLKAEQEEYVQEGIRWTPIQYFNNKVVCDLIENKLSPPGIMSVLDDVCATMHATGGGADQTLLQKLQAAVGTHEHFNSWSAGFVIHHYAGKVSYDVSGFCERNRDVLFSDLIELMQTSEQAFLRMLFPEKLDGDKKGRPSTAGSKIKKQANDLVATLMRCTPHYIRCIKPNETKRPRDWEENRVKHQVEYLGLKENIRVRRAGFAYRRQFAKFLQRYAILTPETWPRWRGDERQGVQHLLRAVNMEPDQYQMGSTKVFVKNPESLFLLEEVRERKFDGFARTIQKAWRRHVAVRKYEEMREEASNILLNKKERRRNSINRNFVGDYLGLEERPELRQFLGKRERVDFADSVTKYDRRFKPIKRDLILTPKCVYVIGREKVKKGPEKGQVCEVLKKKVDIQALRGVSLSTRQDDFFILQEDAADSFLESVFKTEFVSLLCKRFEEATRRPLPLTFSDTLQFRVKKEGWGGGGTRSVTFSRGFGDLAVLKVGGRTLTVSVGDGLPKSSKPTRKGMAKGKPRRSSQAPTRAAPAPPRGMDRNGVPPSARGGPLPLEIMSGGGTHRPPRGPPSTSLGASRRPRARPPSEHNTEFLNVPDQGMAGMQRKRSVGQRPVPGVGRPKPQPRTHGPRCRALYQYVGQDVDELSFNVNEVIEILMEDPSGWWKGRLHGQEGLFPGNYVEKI

Assay [2] concerns the target T2, GFP-MYO1F (full-length) (human). This is another data set of the same source.
For assay [3] the target is unchanged. The source holds these as a separate data set.

In the case of “SH3KBP1, endogenous in RPE (from UniProt Q96B97 1-665)”, the binding result in the assay with GFP-MYO1F tail (human) is recorded as “binds”.

With “myc-ASAP1 construct 3 (residue 589-937) (from UniProt Q9ULH1 589-937) (domain or fragment)”, the binding entry in assay [1] is on record as “binds”.

Regarding “myc-ASAP-3' (aa 589 - aa1129) (from UniProt Q9ULH1 589-1129) (domain or fragment)”, the binding entry in assay [1] and in assay [2] was “binds” each time.

On to myc-SH3KBP1 (from UniProt Q96B97 1-665), for which the binding result in assay [2] is “binds”.

B1: myc-SH3BP2 (wild-type) (protein, UniProt P78314 1-561)
chain: MAAEEMHWPVPMKAIGAQNLLTMPGGVAKAGYLHKKGGTQLQLLKWPLRFVIIHKRCVYYFKSSTSASPQGAFSLSGYNRVMRAAEETTSNNVFPFKIIHISKKHRTWFFSASSEEERKSWMALLRREIGHFHEKKDLPLDTSDSSSDTDSFYGAVERPVDISLSPYPTDNEDYEHDDEDDSYLEPDSPEPGRLEDALMHPPAYPPPPVPTPRKPAFSDMPRAHSFTSKGPGPLLPPPPPKHGLPDVGLAAEDSKRDPLCPRRAEPCPRVPATPRRMSDPPLSTMPTAPGLRKPPCFRESASPSPEPWTPGHGACSTSSAAIMATATSRNCDKLKSFHLSPRGPPTSEPPPVPANKPKFLKIAEEDPPREAAMPGLFVPPVAPRPPALKLPVPEAMARPAVLPRPEKPQLPHLQRSPPDGQSFRSFSFEKPRQPSQADTGGDDSDEDYEKVPLPNSVFVNTTESCEVERLFKATSPRGEPQDGLYCIRNSSTKSGKVLVVWDETSNKVRNYRIFEKDSKFYLEGEVLFVSVGSMVEHYHTHVLPSHQSLLLRHPYGYTGPR
B1: the binding result in assay [3] and in assay [2] was “binds” throughout.

B2: myc-SH3BP2 K356A (protein, UniProt P78314 1-561)
chain: B1 chain with K356A
B2: the binding entry in assay [3] is recorded as “binds”.

B3: myc-SH3BP2 ΔPPVPANK (protein, UniProt P78314)
chain: MAAEEMHWPVPMKAIGAQNLLTMPGGVAKAGYLHKKGGTQLQLLKWPLRFVIIHKRCVYYFKSSTSASPQGAFSLSGYNRVMRAAEETTSNNVFPFKIIHISKKHRTWFFSASSEEERKSWMALLRREIGHFHEKKDLPLDTSDSSSDTDSFYGAVERPVDISLSPYPTDNEDYEHDDEDDSYLEPDSPEPGRLEDALMHPPAYPPPPVPTPRKPAFSDMPRAHSFTSKGPGPLLPPPPPKHGLPDVGLAAEDSKRDPLCPRRAEPCPRVPATPRRMSDPPLSTMPTAPGLRKPPCFRESASPSPEPWTPGHGACSTSSAAIMATATSRNCDKLKSFHLSPRGPPTSEPPKFLKIAEEDPPREAAMPGLFVPPVAPRPPALKLPVPEAMARPAVLPRPEKPQLPHLQRSPPDGQSFRSFSFEKPRQPSQADTGGDDSDEDYEKVPLPNSVFVNTTESCEVERLFKATSPRGEPQDGLYCIRNSSTKSGKVLVVWDETSNKVRNYRIFEKDSKFYLEGEVLFVSVGSMVEHYHTHVLPSHQSLLLRHPYGYTGPR
For the molecule B3, the binding entry in assay [3] is reported as “binds”.
